Data as given in PubChem BioAssay AID1224830 (NIAID, 2016).
The whole screen tested about 18,000 reagents; shown is an unselected part. In the full data, about 2,900 (16%) were called active. 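Calls are made per well; low scores hint the gene aids the LPS response, high scores that it dampens it.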 Repeated entries: four replicate wells of each siRNA pool.

Assay: 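Regulators of TLR4 signalling towards TNF-alpha in macrophage-like cells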 (primary screen)
Cells: human THP-1 monocytic leukaemia cells, TNF dual-luciferase reporter clone, PMA-differentiated to macrophage-like cells
Reagents: siRNA pool against human genes, 50 nM
Timing: LPS for 4 h, given about 3 days after siRNA transfection
Treatment: bacterial LPS (TLR4 ligand), 10 ng/ml
Measured: 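Ratio of firefly to renilla light, scaled to the plate median and expressed as a robust z-score per replicate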
Reading the numbers: TNF reporter robust z-score: higher = stronger TNF reporter response to LPS
Rule for the call: 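a well is active when its z-score exceeds 2.8 or falls below -1.5; control wells carry no call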

| gene | TNF reporter robust z-score | outcome |
| --- | --- | --- |
| CWC15 | -0.52 | inactive |
| CWC15 | -0.64 | inactive |
| CWC15 | 1.21 | inactive |
| CWC15 | -0.14 | inactive |
| MCM8 | -1.1 | inactive |
| MCM8 | -0.4 | inactive |
| MCM8 | -0.81 | inactive |
| MCM8 | -0.83 | inactive |
| NOTCH1 | -0.58 | inactive |
| NOTCH1 | -1.37 | inactive |
| NOTCH1 | 0.94 | inactive |
| NOTCH1 | 0.11 | inactive |
| BBS10 | -1.12 | inactive |
| BBS10 | -1.39 | inactive |
| BBS10 | -1.15 | inactive |
| BBS10 | -0.08 | inactive |
| F7 | -1.18 | inactive |
| F7 | 0.5 | inactive |
| F7 | 0.07 | inactive |
| F7 | 0.33 | inactive |
| HEY2 | -0.6 | inactive |
| HEY2 | -0.63 | inactive |
| HEY2 | -0.53 | inactive |
| HEY2 | -0.71 | inactive |
| ZNF329 | -0.41 | inactive |
| ZNF329 | 0.39 | inactive |
| ZNF329 | -0.2 | inactive |
| ZNF329 | 0.09 | inactive |
| DHX8 | 0.74 | inactive |
| DHX8 | 1.42 | inactive |
| DHX8 | 1.35 | inactive |
| DHX8 | 0.26 | inactive |

Reformatted: 4 of the entries above
DHX8 | TNF reporter robust z-score: 0.74; outcome: inactive
DHX8 | TNF reporter robust z-score: 1.42; outcome: inactive
DHX8 | TNF reporter robust z-score: 1.35; outcome: inactive
DHX8 | TNF reporter robust z-score: 0.26; outcome: inactive

More results:
| gene | TNF reporter robust z-score | outcome |
| --- | --- | --- |
| CCNT2 | 0.09 | inactive |
| CCNT2 | -0.74 | inactive |
| CCNT2 | -0.24 | inactive |
| CCNT2 | -0.41 | inactive |
| KDM4A | -1 | inactive |
| KDM4A | -0.64 | inactive |
| KDM4A | -0.83 | inactive |
| KDM4A | -0.97 | inactive |
| LRIT2 | 0.2 | inactive |
| LRIT2 | 0.7 | inactive |
| LRIT2 | -0.16 | inactive |
| LRIT2 | 1.96 | inactive |
| FXYD3 | -0.96 | inactive |
| FXYD3 | -0.64 | inactive |
| FXYD3 | -0.13 | inactive |
| FXYD3 | -0.18 | inactive |
